Measurements reported in patent US20250074896A1, “ARYLTETRAHYDROPYRIDAZINE DERIVATIVE OR SALT THEREOF AND INSECTICIDAL AGENT CONTAINING THE COMPOUND AND METHOD FOR USING SAME” (NIHON NOHYAKU CO., LTD., priority 2021, published 2025).
Some entries share one result that the patent states for a list of compounds.

Tests used:
[1] = system: Small Brown Planthopper (Laodelphax striatellus); experiment: Insecticidal test on small brown planthopper (dipped rice seedlings, 3rd-instar larvae); assay type: in vivo; details: rice seedlings dipped 30 seconds, 8 days after inoculation
[2] = system: Western Flower Thrips (Frankliniella occidentalis); experiment: Insecticidal test on western flower thrips (kidney bean leaf pieces, hatched larvae); assay type: in vivo; details: 4 days after the treatment

COC(=O)N1C(=O)C(C(=S)NC2CC2)=C(O)CN1c1ccc(C(F)(F)F)nc1 [4-4]
A (the mortality rate is 100%): insecticidal efficacy (corrected mortality rate) against small brown planthopper ([1]; 50 ppm) | insecticidal efficacy (corrected mortality rate) against small brown planthopper ([1]; 500 ppm) | insecticidal efficacy (corrected mortality rate) against western flower thrips ([2]; 50 ppm) | insecticidal efficacy (corrected mortality rate) against western flower thrips ([2]; 500 ppm)

COCCOC(=O)N1C(=O)C(C(=O)Nc2ccc(F)cn2)=C(O)CN1c1ccc(C#N)cc1 [3-356]
A (the mortality rate is 100%): insecticidal efficacy (corrected mortality rate) against small brown planthopper ([1]; 50 ppm) | insecticidal efficacy (corrected mortality rate) against small brown planthopper ([1]; 500 ppm) | insecticidal efficacy (corrected mortality rate) against western flower thrips ([2]; 50 ppm) | insecticidal efficacy (corrected mortality rate) against western flower thrips ([2]; 500 ppm)

COC(=O)N1C(=O)C(C(=O)Nc2cccnc2)=C(O)CN1c1ccc(C#N)cc1 [3-544]
A (the mortality rate is 100%): insecticidal efficacy (corrected mortality rate) against small brown planthopper ([1]; 500 ppm) | insecticidal efficacy (corrected mortality rate) against western flower thrips ([2]; 500 ppm)

COC(=O)N1C(=O)C(C(=O)Nc2ccc(C#N)cc2)=C(O)CN1c1ccc(Cl)cn1 [3-494]
A (the mortality rate is 100%): insecticidal efficacy (corrected mortality rate) against small brown planthopper ([1]; 50 ppm) | insecticidal efficacy (corrected mortality rate) against small brown planthopper ([1]; 500 ppm) | insecticidal efficacy (corrected mortality rate) against western flower thrips ([2]; 50 ppm) | insecticidal efficacy (corrected mortality rate) against western flower thrips ([2]; 500 ppm)

COC(=O)N1C(=O)C(C(=O)Nc2ccc(OC)cc2OC)=C(O)CN1c1ccc(C#N)cc1 [3-453]
A (the mortality rate is 100%): insecticidal efficacy (corrected mortality rate) against small brown planthopper ([1]; 500 ppm) | insecticidal efficacy (corrected mortality rate) against western flower thrips ([2]; 500 ppm)

CCCCOC(=O)N1C(=O)C(C(=O)Nc2ccn(C)n2)=C(O)CN1c1ccc(Br)nc1 [3-650]
A (the mortality rate is 100%): insecticidal efficacy (corrected mortality rate) against small brown planthopper ([1]; 50 ppm) | insecticidal efficacy (corrected mortality rate) against small brown planthopper ([1]; 500 ppm) | insecticidal efficacy (corrected mortality rate) against western flower thrips ([2]; 50 ppm) | insecticidal efficacy (corrected mortality rate) against western flower thrips ([2]; 500 ppm)

COC(=O)N1C(=O)C(C(=O)Nc2ccc(C)cn2)=C(O)CN1c1ccc(Cl)cn1 [3-539]
A (the mortality rate is 100%): insecticidal efficacy (corrected mortality rate) against small brown planthopper ([1]; 50 ppm) | insecticidal efficacy (corrected mortality rate) against small brown planthopper ([1]; 500 ppm) | insecticidal efficacy (corrected mortality rate) against western flower thrips ([2]; 50 ppm) | insecticidal efficacy (corrected mortality rate) against western flower thrips ([2]; 500 ppm)

COCCNC(=O)C1=C(O)CN(c2ccc(Br)nc2)N(C(=O)OC)C1=O [3-396]
A (the mortality rate is 100%): insecticidal efficacy (corrected mortality rate) against small brown planthopper ([1]; 50 ppm) | insecticidal efficacy (corrected mortality rate) against small brown planthopper ([1]; 500 ppm) | insecticidal efficacy (corrected mortality rate) against western flower thrips ([2]; 500 ppm)

COCCNC(=O)C1=C(O)CN(c2ccc(C#N)cc2)NC1=O [1-212]
A (the mortality rate is 100%): insecticidal efficacy (corrected mortality rate) against small brown planthopper ([1]; 50 ppm) | insecticidal efficacy (corrected mortality rate) against small brown planthopper ([1]; 500 ppm) | insecticidal efficacy (corrected mortality rate) against western flower thrips ([2]; 500 ppm)

COC(=O)N1C(=O)C(C(=O)Nc2ccc(OC)nc2)=C(O)CN1c1ccc(C#N)cc1 [3-434]
A (the mortality rate is 100%): insecticidal efficacy (corrected mortality rate) against small brown planthopper ([1]; 50 ppm) | insecticidal efficacy (corrected mortality rate) against small brown planthopper ([1]; 500 ppm) | insecticidal efficacy (corrected mortality rate) against western flower thrips ([2]; 50 ppm) | insecticidal efficacy (corrected mortality rate) against western flower thrips ([2]; 500 ppm)

COC(=O)N1C(=O)C(C(=O)Nc2ccc(F)c(F)c2)=C(O)CN1c1ccc(C#N)c(OC)c1 [3-222]
A (the mortality rate is 100%): insecticidal efficacy (corrected mortality rate) against small brown planthopper ([1]; 50 ppm) | insecticidal efficacy (corrected mortality rate) against small brown planthopper ([1]; 500 ppm) | insecticidal efficacy (corrected mortality rate) against western flower thrips ([2]; 50 ppm) | insecticidal efficacy (corrected mortality rate) against western flower thrips ([2]; 500 ppm)

COC(=O)N1C(=O)C(C(=O)Nc2c(F)cc(F)cc2F)=C(O)CN1c1cnc(C#N)c(Cl)c1 [3-481]
A (the mortality rate is 100%): insecticidal efficacy (corrected mortality rate) against small brown planthopper ([1]; 500 ppm) | insecticidal efficacy (corrected mortality rate) against western flower thrips ([2]; 50 ppm) | insecticidal efficacy (corrected mortality rate) against western flower thrips ([2]; 500 ppm)

COC(=O)N1C(=O)C(C(=O)Nc2ccc(F)cn2)=C(O)CN1c1ccc(C#N)nc1 [3-196]
A (the mortality rate is 100%): insecticidal efficacy (corrected mortality rate) against small brown planthopper ([1]; 50 ppm) | insecticidal efficacy (corrected mortality rate) against small brown planthopper ([1]; 500 ppm) | insecticidal efficacy (corrected mortality rate) against western flower thrips ([2]; 50 ppm) | insecticidal efficacy (corrected mortality rate) against western flower thrips ([2]; 500 ppm)

COCCOC(=O)N1C(=O)C(C(=O)Nc2ccc(F)nc2)=C(O)CN1c1ccc(C#N)cc1 [3-353]
A (the mortality rate is 100%): insecticidal efficacy (corrected mortality rate) against small brown planthopper ([1]; 50 ppm) | insecticidal efficacy (corrected mortality rate) against small brown planthopper ([1]; 500 ppm) | insecticidal efficacy (corrected mortality rate) against western flower thrips ([2]; 50 ppm) | insecticidal efficacy (corrected mortality rate) against western flower thrips ([2]; 500 ppm)

COc1ccc(NC(=O)C2=C(O)CN(c3ccc(C#N)nc3)NC2=O)cn1 [1-62]
A (the mortality rate is 100%): insecticidal efficacy (corrected mortality rate) against small brown planthopper ([1]; 500 ppm) | insecticidal efficacy (corrected mortality rate) against western flower thrips ([2]; 500 ppm)

Cn1ccc(NC(=O)C2=C(O)CN(c3cnc(C#N)c(Cl)c3)NC2=O)n1 [1-176]
A (the mortality rate is 100%): insecticidal efficacy (corrected mortality rate) against small brown planthopper ([1]; 500 ppm) | insecticidal efficacy (corrected mortality rate) against western flower thrips ([2]; 50 ppm) | insecticidal efficacy (corrected mortality rate) against western flower thrips ([2]; 500 ppm)

COCn1ccc(NC(=O)C2=C(O)CN(c3ccc(C#N)cc3)N(C(=O)OC)C2=O)n1 [3-647]
A (the mortality rate is 100%): insecticidal efficacy (corrected mortality rate) against small brown planthopper ([1]; 50 ppm) | insecticidal efficacy (corrected mortality rate) against small brown planthopper ([1]; 500 ppm) | insecticidal efficacy (corrected mortality rate) against western flower thrips ([2]; 50 ppm) | insecticidal efficacy (corrected mortality rate) against western flower thrips ([2]; 500 ppm)

COC(=O)N1C(=O)C(C(=O)Nc2ccc(F)cn2)=C(O)CN1c1ccc(C#N)cc1 [3-233]
A (the mortality rate is 100%): insecticidal efficacy (corrected mortality rate) against small brown planthopper ([1]; 50 ppm) | insecticidal efficacy (corrected mortality rate) against small brown planthopper ([1]; 500 ppm) | insecticidal efficacy (corrected mortality rate) against western flower thrips ([2]; 50 ppm) | insecticidal efficacy (corrected mortality rate) against western flower thrips ([2]; 500 ppm)

COC(=O)N1C(=O)C(C(=O)Nc2ccc(C#N)cc2)=C(O)CN1c1ccc(Cl)cc1 [3-499]
A (the mortality rate is 100%): insecticidal efficacy (corrected mortality rate) against small brown planthopper ([1]; 50 ppm) | insecticidal efficacy (corrected mortality rate) against western flower thrips ([2]; 50 ppm) | insecticidal efficacy (corrected mortality rate) against western flower thrips ([2]; 500 ppm)

N#Cc1ccc(N2CC(O)=C(C(=O)Nc3ccccc3C#N)C(=O)N2)cc1 [1-245]
A (the mortality rate is 100%): insecticidal efficacy (corrected mortality rate) against small brown planthopper ([1]; 50 ppm) | insecticidal efficacy (corrected mortality rate) against small brown planthopper ([1]; 500 ppm) | insecticidal efficacy (corrected mortality rate) against western flower thrips ([2]; 50 ppm) | insecticidal efficacy (corrected mortality rate) against western flower thrips ([2]; 500 ppm)

COCCNC(=O)N1C(=O)C(C(=O)Nc2ccc(F)cc2)=C(O)CN1c1ccc(C#N)nc1 [3-75]
A (the mortality rate is 100%): insecticidal efficacy (corrected mortality rate) against small brown planthopper ([1]; 50 ppm) | insecticidal efficacy (corrected mortality rate) against small brown planthopper ([1]; 500 ppm) | insecticidal efficacy (corrected mortality rate) against western flower thrips ([2]; 50 ppm) | insecticidal efficacy (corrected mortality rate) against western flower thrips ([2]; 500 ppm)

COc1cccc(NC(=O)C2=C(O)CN(c3ccc(C#N)cc3)NC2=O)n1 [1-236]
A (the mortality rate is 100%): insecticidal efficacy (corrected mortality rate) against small brown planthopper ([1]; 50 ppm) | insecticidal efficacy (corrected mortality rate) against small brown planthopper ([1]; 500 ppm) | insecticidal efficacy (corrected mortality rate) against western flower thrips ([2]; 50 ppm) | insecticidal efficacy (corrected mortality rate) against western flower thrips ([2]; 500 ppm)

COC(=O)N1C(=O)C(C(=O)Nc2ccc(F)nc2)=C(O)CN1c1ccc(C#N)nc1 [3-187]
A (the mortality rate is 100%): insecticidal efficacy (corrected mortality rate) against small brown planthopper ([1]; 50 ppm) | insecticidal efficacy (corrected mortality rate) against small brown planthopper ([1]; 500 ppm) | insecticidal efficacy (corrected mortality rate) against western flower thrips ([2]; 50 ppm) | insecticidal efficacy (corrected mortality rate) against western flower thrips ([2]; 500 ppm)

CC(C)(C)OC(=O)N1C(=O)C(C(=S)NC2CC2)=C(O)CN1c1ccc(C(F)(F)F)nc1 [4-40]
A (the mortality rate is 100%): insecticidal efficacy (corrected mortality rate) against small brown planthopper ([1]; 50 ppm) | insecticidal efficacy (corrected mortality rate) against small brown planthopper ([1]; 500 ppm) | insecticidal efficacy (corrected mortality rate) against western flower thrips ([2]; 50 ppm) | insecticidal efficacy (corrected mortality rate) against western flower thrips ([2]; 500 ppm)

COC(=O)N1C(=O)C(C(=O)Nc2cccc(C)n2)=C(O)CN1c1ccc(C#N)c(Cl)c1 [3-641]
A (the mortality rate is 100%): insecticidal efficacy (corrected mortality rate) against small brown planthopper ([1]; 500 ppm) | insecticidal efficacy (corrected mortality rate) against western flower thrips ([2]; 50 ppm) | insecticidal efficacy (corrected mortality rate) against western flower thrips ([2]; 500 ppm)

COCCNC(=O)C1=C(O)CN(c2ccc(C#N)cc2)N(C(=O)OC)C1=O [3-440]
A (the mortality rate is 100%): insecticidal efficacy (corrected mortality rate) against small brown planthopper ([1]; 50 ppm) | insecticidal efficacy (corrected mortality rate) against small brown planthopper ([1]; 500 ppm) | insecticidal efficacy (corrected mortality rate) against western flower thrips ([2]; 500 ppm)
